Data reported in US12409206B2, “Use of cyclosporine analogues for treating fibrosis” (Hepion Pharmaceuticals, Inc., priority 2020, dated 2025).
Where two headings read alike, the source gives them in different places. The source gives many values for each of these; only a part stands here.

Tested on: human precision cut liver slices (PCLS)
Test: PCLS RNA-Seq, Nonstimulation Protocol: Non-stimulated+CRV vs Non-stimulated+Vehicle
Format: cell-based
Protocol: PCLS were obtained from 5 human donors who underwent resection of liver cancer. Replicate slices were collected from healthy margins of the resections and cultured for 4 or 6 days depending on the experimental protocol. In the Nonstimulation Protocol slices were cultured for 6 days and treated for the entire period with DMSO vehicle or 5 μM CRV431. In the Stimulation Protocol slices were rested for 1 day and then administered the cytokines, TGFβ and PDGF-BB, for 3 days to stimulate inflammation and fibrosis. DMSO vehicle, CRV431 (1 and 5 μM), Alk5i (10 μM), obeticholic acid (5 μM), elafibranor (5 μM), resmetirom ([…]), and Aramchol (5 μM) were administered individually as drug treatments in the Stimulation Protocol concurrent with TGFβ+PDGF-BB. Culture medium treatments were replaced daily.
Four types of evaluations were conducted on the PCLS: (a) secretion of inflammation and fibrosis biomarkers into the culture medium, (b) histological staining and quantitation of Sirius red as a measure of tissue fibrosis, (c) gene expression of inflammation and fibrosis biomarkers by RT-PCR, and (d) RNA sequencing (RNA-Seq) of the complete transcriptome. Each of the four types of evaluation is described below: • (a) Biomarker secretion. Spent culture medium was collected daily from duplicate slices for each treatment. ELISAs were used to quantify secretion of monocyte chemoattractant protein (MCP-1), interleukin-6 (IL-6), tissue inhibitor of metalloproteinase-1 (TIMP1), hyaluronic acid, fibronectin, and collagen 1α1. For each donor the mean level of biomarker secretion in each treatment group was expressed as a percentage change relative to DMSO vehicle, the percentages averaged for all donors, and finally the mean daily percentage change calculated from all days of evaluation. Results are shown in FIG. 8A (secreted markers-% daily average change). • (b) Sirius red histological staining. […] Sirius red was quantified morphometrically in the histological sections as the percentage area with Sirius red staining in 10 sections from each treatment. In the Nonstimulation Protocol the quantity of Sirius red staining was expressed relative to the vehicle group. In the Stimulation Protocol the quantity of Sirius red staining was expressed relative to nonstimulated PCLS (0%) and TGFβ+PDGF-BB-stimulated+vehicle PCLS (100%). Results are shown in FIG. 8B (Sirius red staining for tissue fibrosis). • (c) Gene expression by RT-PCR. RNA was isolated from duplicate liver slices per treatment at the end of the experiments and evaluated by RT-PCR for 5 markers of inflammation and fibrosis: MCP-1, IL-6, TIMP1, αSMA, and collagen 1α1. β actin was used as a reference gene to calculate relative levels of each target gene RNA. […] Results are shown in FIG. 8C (gene expression by RT-PCR). • (d) Gene expression by RNA-Seq. RNA sequencing of the complete transcriptome (30 million reads per sample) was conducted on vehicle and 5 μM CRV431 treatment groups from 3 donors both from the Nonstimulation and Stimulation Protocols. Data were analyzed by bioinformatics software programs to identify genes that were differentially expressed between vehicle and CRV431 treatments.
For the evaluation done for (d), 12 samples corresponding to 3 different donor slides which underwent 4 different treatments were studied. the comparisons carried out in this analysis are: (1) TGFb/PDGF+CRV vs TGFb/PDGF+Vehicle (V), and (2) Non-stimulated+CRV vs Non-stimulated+Vehicle. […] Table 1. Samples for evaluation (d)
Quality Control check was performed in all samples. All samples had more than 30 million reads and a quality score average >35 for almost all the bases in the sequences. The duplication levels are expected as it is RNA sequencing, and different copies of the same RNA are expected to be present in the samples. All samples had good amount of reads and quality, therefore all samples passed the QC checked and were included in the analysis. […]

## CC[C@@H]1NC(=O)[C@H]([C@H](O)[C@H](C)CCCCCCNC(C)=O)N(C)C(=O)[C@H](C(C)C)N(C)C(=O)[C@H](CC(C)C)N(C)C(=O)[C@H](CC(C)C)N(C)C(=O)[C@@H](C)NC(=O)[C@H](C)NC(=O)[C@H](CC(C)C)N(C)C(=O)[C@H](C(C)C)NC(=O)[C@H](CC(C)C)N(C)C(=O)[C@@H](C)N(C)C1=O [CRV431]
  log2FoldChange: 0.577
Gene AC099668.1, Non-stimulated+CRV vs Non-stimulated+Vehicle
  log2FoldChange: 1.056
Gene ADGRD1, Non-stimulated+CRV vs Non-stimulated+Vehicle
  log2FoldChange: −1.126
Gene AFG1L, Non-stimulated+CRV vs Non-stimulated+Vehicle
  log2FoldChange: 1.327
Gene AGT, Non-stimulated+CRV vs Non-stimulated+Vehicle
  log2FoldChange: −0.627
Gene AKAP10, Non-stimulated+CRV vs Non-stimulated+Vehicle
  log2FoldChange: −1.249
Gene ALPK3, Non-stimulated+CRV vs Non-stimulated+Vehicle
  log2FoldChange: −0.621
Gene AP000347.1, Non-stimulated+CRV vs Non-stimulated+Vehicle
  log2FoldChange: 1.809
Gene APBA1, Non-stimulated+CRV vs Non-stimulated+Vehicle
  log2FoldChange: −1.158
Gene ARVCF, Non-stimulated+CRV vs Non-stimulated+Vehicle
  log2FoldChange: −0.609
Gene C4B, Non-stimulated+CRV vs Non-stimulated+Vehicle
  log2FoldChange: −0.506
Gene CACUL1, Non-stimulated+CRV vs Non-stimulated+Vehicle
  log2FoldChange: −0.94
Gene CCNK, Non-stimulated+CRV vs Non-stimulated+Vehicle
  log2FoldChange: 0.545
Gene CD5L, Non-stimulated+CRV vs Non-stimulated+Vehicle
  log2FoldChange: 1.675
Gene CD180, Non-stimulated+CRV vs Non-stimulated+Vehicle
  log2FoldChange: 1.051
Gene COL27A1, Non-stimulated+CRV vs Non-stimulated+Vehicle
  log2FoldChange: −0.545
Gene CXCL5, Non-stimulated+CRV vs Non-stimulated+Vehicle
  log2FoldChange: 0.663
Gene CYP3A4, Non-stimulated+CRV vs Non-stimulated+Vehicle
  log2FoldChange: −2.313
Gene DAAM2, Non-stimulated+CRV vs Non-stimulated+Vehicle
  log2FoldChange: 1.498
Gene DANCR, Non-stimulated+CRV vs Non-stimulated+Vehicle
  log2FoldChange: 0.693
Gene DGKD, Non-stimulated+CRV vs Non-stimulated+Vehicle
  log2FoldChange: −0.85
Gene DKK1, Non-stimulated+CRV vs Non-stimulated+Vehicle
  log2FoldChange: 1.939
Gene DUS3L, Non-stimulated+CRV vs Non-stimulated+Vehicle
  log2FoldChange: 0.745
Gene ESM1, Non-stimulated+CRV vs Non-stimulated+Vehicle
  log2FoldChange: −1.157
Gene FANCI, Non-stimulated+CRV vs Non-stimulated+Vehicle
  log2FoldChange: −1.319
Gene FSTL 1, Non-stimulated+CRV vs Non-stimulated+Vehicle
  log2FoldChange: −0.595
Gene GEM, Non-stimulated+CRV vs Non-stimulated+Vehicle
  log2FoldChange: −0.975
Gene GMPPB, Non-stimulated+CRV vs Non-stimulated+Vehicle
  log2FoldChange: 0.715
Gene GOLGA8A, Non-stimulated+CRV vs Non-stimulated+Vehicle
  log2FoldChange: −0.669
Gene GYG1, Non-stimulated+CRV vs Non-stimulated+Vehicle
  log2FoldChange: 0.94
Gene HID1, Non-stimulated+CRV vs Non-stimulated+Vehicle
  log2FoldChange: 0.716
Gene HLA-F, Non-stimulated+CRV vs Non-stimulated+Vehicle
  log2FoldChange: −0.727
Gene HM13, Non-stimulated+CRV vs Non-stimulated+Vehicle
  log2FoldChange: 0.528
Gene HOOK1, Non-stimulated+CRV vs Non-stimulated+Vehicle
  log2FoldChange: −0.998
Gene IFI6, Non-stimulated+CRV vs Non-stimulated+Vehicle
  log2FoldChange: −1.273
Gene IFI44L, Non-stimulated+CRV vs Non-stimulated+Vehicle
  log2FoldChange: −2.254
Gene IFIT2, Non-stimulated+CRV vs Non-stimulated+Vehicle
  log2FoldChange: −0.812
Gene ISLR, Non-stimulated+CRV vs Non-stimulated+Vehicle
  log2FoldChange: −0.815
Gene KAT14, Non-stimulated+CRV vs Non-stimulated+Vehicle
  log2FoldChange: 0.874
Gene KIAA0513, Non-stimulated+CRV vs Non-stimulated+Vehicle
  log2FoldChange: −0.98
Gene KRT81, Non-stimulated+CRV vs Non-stimulated+Vehicle
  log2FoldChange: 1.137
Gene L3MBTL1, Non-stimulated+CRV vs Non-stimulated+Vehicle
  log2FoldChange: −2.03
Gene LGALS3BP, Non-stimulated+CRV vs Non-stimulated+Vehicle
  log2FoldChange: −0.556
Gene LILRB4, Non-stimulated+CRV vs Non-stimulated+Vehicle
  log2FoldChange: 0.909
Gene LILRB5, Non-stimulated+CRV vs Non-stimulated+Vehicle
  log2FoldChange: 1.075
Gene MANF, Non-stimulated+CRV vs Non-stimulated+Vehicle
  log2FoldChange: 0.682
Gene MEG3, Non-stimulated+CRV vs Non-stimulated+Vehicle
  log2FoldChange: −0.682
Gene MIR194-2HG, Non-stimulated+CRV vs Non-stimulated+Vehicle
  log2FoldChange: −2.973
Gene MLLT10, Non-stimulated+CRV vs Non-stimulated+Vehicle
  log2FoldChange: −1.19
Gene MT-CO1, Non-stimulated+CRV vs Non-stimulated+Vehicle
  log2FoldChange: −1.083
Gene MTCO1P12, Non-stimulated+CRV vs Non-stimulated+Vehicle
  log2FoldChange: −1.183
Gene NOTCH3, Non-stimulated+CRV vs Non-stimulated+Vehicle
  log2FoldChange: −0.564
Gene NUGGC, Non-stimulated+CRV vs Non-stimulated+Vehicle
  log2FoldChange: 1.136
Gene PALM2-AKAP2, Non-stimulated+CRV vs Non-stimulated+Vehicle
  log2FoldChange: −1.035
Gene PAN2, Non-stimulated+CRV vs Non-stimulated+Vehicle
  log2FoldChange: 0.742
Gene PDE4C, Non-stimulated+CRV vs Non-stimulated+Vehicle
  log2FoldChange: −0.669
Gene PDZD2, Non-stimulated+CRV vs Non-stimulated+Vehicle
  log2FoldChange: −1.468
Gene PEG10, Non-stimulated+CRV vs Non-stimulated+Vehicle
  log2FoldChange: 1.463
Gene PFKFB3, Non-stimulated+CRV vs Non-stimulated+Vehicle
  log2FoldChange: −0.545
Gene PLTP, Non-stimulated+CRV vs Non-stimulated+Vehicle
  log2FoldChange: −0.584
Gene PLXNA2, Non-stimulated+CRV vs Non-stimulated+Vehicle
  log2FoldChange: 1.719
Gene R3HDM2, Non-stimulated+CRV vs Non-stimulated+Vehicle
  log2FoldChange: −0.678
Gene RAD51D, Non-stimulated+CRV vs Non-stimulated+Vehicle
  log2FoldChange: 1.387
Gene RARRES2, Non-stimulated+CRV vs Non-stimulated+Vehicle
  log2FoldChange: −0.766
Gene RFX1, Non-stimulated+CRV vs Non-stimulated+Vehicle
  log2FoldChange: −1.495
Gene SCRIB, Non-stimulated+CRV vs Non-stimulated+Vehicle
  log2FoldChange: 0.661
Gene SEC11C, Non-stimulated+CRV vs Non-stimulated+Vehicle
  log2FoldChange: 0.844
Gene SEC24D, Non-stimulated+CRV vs Non-stimulated+Vehicle
  log2FoldChange: 0.58
Gene SEC61B, Non-stimulated+CRV vs Non-stimulated+Vehicle
  log2FoldChange: 0.602
Gene SELL, Non-stimulated+CRV vs Non-stimulated+Vehicle
  log2FoldChange: 2.035
Gene SIPA1L3, Non-stimulated+CRV vs Non-stimulated+Vehicle
  log2FoldChange: −0.652
Gene SKI, Non-stimulated+CRV vs Non-stimulated+Vehicle
  log2FoldChange: −0.931
Gene SLC2A1, Non-stimulated+CRV vs Non-stimulated+Vehicle
  log2FoldChange: −0.635
Gene SLC29A1, Non-stimulated+CRV vs Non-stimulated+Vehicle
  log2FoldChange: −0.53
Gene SPCS3, Non-stimulated+CRV vs Non-stimulated+Vehicle
  log2FoldChange: 0.715
Gene SSR4, Non-stimulated+CRV vs Non-stimulated+Vehicle
  log2FoldChange: 0.564
Gene SYNGAP1, Non-stimulated+CRV vs Non-stimulated+Vehicle
  log2FoldChange: −1.718
Gene SYNRG, Non-stimulated+CRV vs Non-stimulated+Vehicle
  log2FoldChange: −0.74
Gene TMEM154, Non-stimulated+CRV vs Non-stimulated+Vehicle
  log2FoldChange: −1.351
Gene TNFSF14, Non-stimulated+CRV vs Non-stimulated+Vehicle
  log2FoldChange: −0.681
Gene TRPV6, Non-stimulated+CRV vs Non-stimulated+Vehicle
  log2FoldChange: 0.83
Gene TTLL3, Non-stimulated+CRV vs Non-stimulated+Vehicle
  log2FoldChange: −0.579
Gene UHRF2, Non-stimulated+CRV vs Non-stimulated+Vehicle
  log2FoldChange: −0.778
Gene UNKL, Non-stimulated+CRV vs Non-stimulated+Vehicle
  log2FoldChange: −0.916
Gene WNK1, Non-stimulated+CRV vs Non-stimulated+Vehicle
  log2FoldChange: −0.698
Gene XAF1, Non-stimulated+CRV vs Non-stimulated+Vehicle
  log2FoldChange: −0.725
